Results reported in publication PMC6610961.
Results are given in words; binding and its absence hold for the method and conditions named. In cells and extracts the contact can be indirect. Some results given as binding are weak or reduced against the parent protein; the word gives no strength.

Protein sequences, listed by entry. Tags and fused reporters are not part of them.
UniProt Q9ULW0: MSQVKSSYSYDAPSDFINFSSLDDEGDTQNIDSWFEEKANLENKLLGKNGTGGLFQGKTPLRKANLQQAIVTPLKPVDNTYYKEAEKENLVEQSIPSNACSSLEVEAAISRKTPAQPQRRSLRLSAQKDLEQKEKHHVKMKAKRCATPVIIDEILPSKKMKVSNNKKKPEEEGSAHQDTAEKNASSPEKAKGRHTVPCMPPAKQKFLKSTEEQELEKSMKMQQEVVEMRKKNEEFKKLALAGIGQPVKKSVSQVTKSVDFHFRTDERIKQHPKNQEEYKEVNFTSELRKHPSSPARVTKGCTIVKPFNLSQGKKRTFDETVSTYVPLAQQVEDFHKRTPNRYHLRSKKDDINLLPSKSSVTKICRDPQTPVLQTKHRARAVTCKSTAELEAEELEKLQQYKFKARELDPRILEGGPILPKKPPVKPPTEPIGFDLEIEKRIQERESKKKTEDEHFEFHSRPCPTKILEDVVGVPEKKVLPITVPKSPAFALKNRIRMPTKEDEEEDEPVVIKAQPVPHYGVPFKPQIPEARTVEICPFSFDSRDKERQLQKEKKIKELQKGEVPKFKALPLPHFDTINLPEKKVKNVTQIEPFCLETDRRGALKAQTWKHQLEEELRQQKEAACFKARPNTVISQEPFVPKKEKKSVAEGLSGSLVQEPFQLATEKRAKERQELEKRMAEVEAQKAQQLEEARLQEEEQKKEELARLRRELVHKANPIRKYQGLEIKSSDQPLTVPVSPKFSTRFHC

Biological target: GFP-CDK5 (cyclin-dependent kinase 5) (UniProt Q00535)
Experiment: co-IP; cell lysates precipitated with GFP antibody, blotted with TPX2 antibodies; NP-40 lysis buffer

binding: binds
Substance: TPX2 (target protein for Xklp2) (from UniProt Q9ULW0 1-747)
